The target of this test is Nipah virus attachment (G) glycoprotein fused to Myc-TurboID (Nipah virus) (UniProt Q9IH62). In words: proximity labelling.

Amino acid sequences for entries named in this document (tags omitted).
UniProt Q9IH62: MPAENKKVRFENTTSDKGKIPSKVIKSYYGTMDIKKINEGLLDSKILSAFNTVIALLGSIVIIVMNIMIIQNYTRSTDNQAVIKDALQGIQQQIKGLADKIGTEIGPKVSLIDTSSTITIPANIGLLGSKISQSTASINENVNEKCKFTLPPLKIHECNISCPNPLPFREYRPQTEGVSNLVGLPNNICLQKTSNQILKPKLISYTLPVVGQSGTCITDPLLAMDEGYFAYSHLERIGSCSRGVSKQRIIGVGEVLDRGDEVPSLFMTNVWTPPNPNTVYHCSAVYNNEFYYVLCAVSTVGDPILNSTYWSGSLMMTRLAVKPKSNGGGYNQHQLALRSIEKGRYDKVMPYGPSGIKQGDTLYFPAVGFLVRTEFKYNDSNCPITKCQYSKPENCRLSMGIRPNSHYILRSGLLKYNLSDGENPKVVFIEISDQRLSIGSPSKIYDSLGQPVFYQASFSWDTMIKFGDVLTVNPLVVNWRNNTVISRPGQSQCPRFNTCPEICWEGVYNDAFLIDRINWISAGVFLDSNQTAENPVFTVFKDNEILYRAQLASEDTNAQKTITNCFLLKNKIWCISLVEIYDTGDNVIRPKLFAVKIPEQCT

No constants are given. Whether binding was seen depends on the method and setting. In cells and extracts the contact can be indirect. A yes stands for co-enrichment or nearness to the bait. Other partners may have been found.

B1: Ephrin B3 (receptor, UniProt Q15768 28-340)
chain: LSLEPVYWNSANKRFQAEGGYVLYPQIGDRLDLLCPRARPPGPHSSPNYEFYKLYLVGGAQGRRCEAPPAPNLLLTCDRPDLDLRFTIKFQEYSPNLWGHEFRSHHDYYIIATSDGTREGLESLQGGVCLTRGMKVLLRVGQSPRGGAVPRKPVSEMPMERDRGAAHSLEPGKENLPGDPTSNATSRGAEGPLPPPSMPAVAGAAGGLALLLLGVAGAGGAMCWRRRRAKPSESRHPGPGSFGRGGSLGLGGGGGMGPREAEPGELGIALRGGGAADPPFCPHYEKVSGDYGHPVYIVQDGPPQSPPNIYYKV
On to B1, for which the binding result is recorded as “binds”.

The record behind these values is paper PMC11012870.
